# From PubChem BioAssay AID540256 (National Center for Advancing Translational Sciences (NCATS), 2011)
# Several values for one entry are separate records, joined by “and”; a condition that tells them apart may be missing. Identical values can stand only once. Hit rate of the full screen: of about 300,000 compounds, about 3,700 (1.2%) were called active. The inconclusive results got no clear call from the source; some entries with a clear call stand among them for comparison. The call rests on the fitted dose curve; tested in HEK293 cells. A potency beside an inconclusive call is a rough fit, not a confirmed value.
# Assay: qHTS for Inhibitors of binding or entry into cells for Lassa Virus; further: nearly all actives have a fitted effect of over 50% in size
# Details: Lassa virus pseudotype entry inhibition, cell reporter; series mostly up to 37.9 µM
# Potency means the concentration at half of the fitted maximal effect.
row,SMILES,Potency
1,N#C/C(C(=O)NCc1ccco1)=C1/SC(Cc2ccc(Cl)cc2)C(=O)N1c1ccccc1 (stereo unspecified),inactive
2,CC(OC(=O)Nc1cccc(Cl)c1)C(=O)O (stereo unspecified),inactive
3,CCOC(=O)C1=C(CSc2nc3c(cc2C#N)CN(C)CC3)OC(N)=C(C#N)C1c1ccncc1 (stereo unspecified),"inconclusive: 1.26 µM [inhibitor, single point]"
4,COc1cc(-c2nn3c(COc4ccccc4)nnc3s2)cc(OC)c1OC,"inconclusive: 10.3 µM [inhibitor, partial curve]"
5,CC(C)OC(=O)c1ccc(NC(=O)CSc2nc(-c3cccs3)cc(C(F)(F)F)n2)cc1,inactive
6,O=C(CNC(=O)c1ccccc1O)N/N=C/c1cc(Br)ccc1OC(=O)/C=C/c1ccco1,active: 5.62 µM
7,COc1ccc(NC(=O)CSc2nnc(C3CCCCC3)n2N)cc1,inactive
8,CCN(CC)c1ccc(S(=O)(=O)N(CC)CC)cc1NC(=O)C1CCCC1,active: 7.94 µM
9,Cc1ccc2c(c1)c(=O)c1ccccc1n2CCCC(=O)Nc1ccc(C)c(C)c1,"inconclusive: 6.31 µM [inhibitor, full curve, poor fit]"
10,CC(C)c1ccc(NC(=S)Nc2ccc3cn[nH]c3c2)cc1,inactive
11,CCN(CC)CCCn1c2c(c(SCC(=O)Nc3ccc(OC(F)(F)F)cc3)nc1=O)CCC2,"inconclusive: 11.2 µM [activator, partial curve, poor fit]"
12,O=C(NCCCN1CCN(CCCNC(=O)c2cccc([N+](=O)[O-])c2)CC1)c1cccc([N+](=O)[O-])c1,"inconclusive: 29.1 µM [activator, single point]"
13,Cc1ccc(C)c(-c2nnc(NC(=O)c3ccco3)o2)c1,"inconclusive: 35.5 µM [inhibitor, single point]"
14,O=C(Nc1cccc(-c2ccc(N3CCOCC3)nn2)c1)c1ccccc1,"inconclusive: 35.5 µM [inhibitor, single point]"
15,CC(/C=N/Nc1nc2ccccc2[nH]1)=C\c1ccccc1,"inconclusive: 29.1 µM [inhibitor, single point]"
16,COc1ccc(NC(=O)CSCC(=O)Nc2nnc(C)s2)cc1,inactive
17,COc1ccc(C(C)=O)cc1CSc1nc(NCc2ccccc2)c2ccccc2n1,"inconclusive: 0.562 µM [inhibitor, full curve, poor fit]"
18,CC(CNC(=O)c1cc2cc(S(=O)(=O)N3CCCCC3)ccc2n1C)c1ccccc1 (stereo unspecified),"inconclusive: 12.6 µM [inhibitor, partial curve, poor fit]"
19,Cc1ccc2onc(CNC(=O)N3CCN(c4cc(Cl)ccc4C)CC3)c2c1,inactive
20,O=C(Cn1c(=O)n(Cc2ccc3c(c2)OCO3)c(=O)c2ccccc21)N1CCCc2ccccc21,"inconclusive: 7.94 µM [inhibitor, partial curve]"
21,Cc1ccc2c(c1)-c1c(cnc3cc(-c4ccc(Cl)cc4)nn13)CO2,inactive
22,Cc1ccc(-n2ncc(N(C)C)c(Cl)c2=O)cc1,inactive
23,Cc1ccc2nc(NC(=O)CN(C)S(=O)(=O)c3cccc4nsnc34)sc2c1,inactive
24,O=C(N/N=C/c1cccc([N+](=O)[O-])c1)c1ccc(Br)cc1,inactive

row,SMILES,Potency
1,Cn1cc(/C=C/C(=O)N2CCCC(C(=O)c3cccc(C(F)(F)F)c3)C2)cn1 (stereo unspecified),"inconclusive: 12.6 µM [inhibitor, partial curve]"
2,Cc1ccc2c(c1)N(CCC(=O)NCc1ccccc1Cl)C(=O)CO2,inactive
3,O=Cc1cn(Cc2ccc(F)cc2Cl)c2ccccc12,"inconclusive: 29.1 µM [inhibitor, single point]"
4,CC(C)CNS(=O)(=O)c1ccc(CCC(=O)N2CCN(Cc3ccccc3)CC2)cc1,"inconclusive: 9.2 µM [inhibitor, partial curve]"
5,Cc1nn(-c2ccccc2)c2sc(C(=O)NC3CC3)cc12,"inconclusive: 0.116 µM [activator, full curve]"
6,COc1ccc(N/C(C)=C/C(=S)Nc2ccccc2)cc1,"inconclusive: 0.447 µM [inhibitor, partial curve, poor fit]"
7,CCOC(=O)N1CCN(C(=O)/C(=C/c2cccc3ccccc23)NC(=O)c2ccc(OC)c(OC)c2)CC1,"inconclusive: 3.66 µM [inhibitor, partial curve, poor fit]"
8,Cc1cccc(-c2c(O)cc(=O)[nH]c2Cl)c1,"inconclusive: 3.16 µM [inhibitor, partial curve, poor fit]"
9,CCN(c1ccccc1)S(=O)(=O)c1cccc(C(=O)NCc2ccccc2CN2CCOCC2)c1,"inconclusive: 22.4 µM [inhibitor, single point]"
10,CCN(Cc1ccccc1)S(=O)(=O)c1ccc2c(c1)CC(C)N2C(=O)C1CCC1 (stereo unspecified),active: 2.82 µM
11,Cc1ccc(N2C(=O)CC(Sc3nccc(C)n3)C2=O)cc1 (stereo unspecified),inactive
12,N#CC(OC(=O)c1ccccc1)c1cccc([N+](=O)[O-])c1 (stereo unspecified),inactive
13,Cc1cccc(N=Cc2cc3c(cc2[N+](=O)[O-])OCO3)c1,inactive
14,CC(=O)Cc1nsc(Nc2ccc(C)cc2)n1,"inconclusive: 0.398 µM [activator, partial curve, poor fit]"
15,Cc1ccc(Cl)cc1N(C)C(=O)c1cn(C2CCCCC2)c(=O)c2c1c1ccccc1n2C,"inconclusive: 3.16 µM [inhibitor, single point]"
16,CC1(C)Cc2cccc(OCC(=O)N3CCN(c4ccc(F)cc4)CC3)c2O1,inactive
17,Oc1ccc(/C=C/c2cc(O)cc(O)c2)cc1,active: 14.6 µM and active: 7.3 µM
18,CC(=O)C1=C(c2ccc(Cl)cc2)N(C(C)=O)n2c(nnc2C2CCCCC2)S1,"inconclusive: 35.5 µM [activator, single point]"
19,COc1ccc(OC)c(N(CC(=O)Nc2cccnc2)S(=O)(=O)c2ccc(C)cc2)c1,"inconclusive: 29.1 µM [inhibitor, single point]"
20,CCCNc1nc(Cl)nc(Nc2ccc(Cl)cc2)n1,"inconclusive: 35.5 µM [inhibitor, single point]"
21,Cn1cnc2c(=O)oc3ccc(S(=O)(=O)Nc4ccc(F)cc4)cc3c21,inactive
22,CCCOC(=O)c1ccc(NC(=O)/C=C/c2cccs2)cc1,"inconclusive: 23.1 µM [inhibitor, single point]"
23,COc1cc(NC(=O)c2ccco2)c(OC)cc1NC(=O)c1cc(OC)c(OC)c(OC)c1,inactive
24,Cn1cc(S(=O)(=O)N2CCOCC2)cc1C(=O)Nc1ccc(Cl)c(C(F)(F)F)c1,"inconclusive: 2.82 µM [activator, partial curve, poor fit]"

row,SMILES,Potency
1,CCOc1cc2c(cc1O)C(=NO)CC1C2CCC2(C)C(O)CCC12 (stereo unspecified),"inconclusive: 2.24 µM [inhibitor, partial curve, poor fit]"
2,OC(c1ccccn1)c1c[nH]c2ccccc12 (stereo unspecified),inactive
3,CCOC(=O)N1CCN(S(=O)(=O)c2ccc3c(c2)CCN3C(=O)C2CC2)CC1,"inconclusive: 1.26 µM [inhibitor, single point]"
4,Cc1ccc([N+](=O)[O-])cc1NC(=S)NC(=O)c1cccnc1,"inconclusive: 4.47 µM [inhibitor, full curve]"
5,CN(C)c1ccc2c(c1[N+](=O)[O-])Cc1ccccc1-2,inactive
6,Cc1ccc(O)c(NC(=O)c2cc(-c3ccccc3O)no2)c1,"inconclusive: 35.5 µM [inhibitor, single point]"
7,Cc1cc(NC(=O)Nc2nnc(N(C)Cc3ccccc3)s2)ccc1Br,inactive
8,CCOC(=O)c1cc2c(=O)n3cccc(C)c3nc2n(CC2CCCO2)c1=NC(C)=O (stereo unspecified),inactive
9,Cc1ccc(S(=O)(=O)c2nc(-c3ccccc3Cl)oc2N(C)C2CCN(C)CC2)cc1,"inconclusive: 35.5 µM [inhibitor, single point]"
10,CC(=O)N1CCN(C(=O)COC(=O)c2ccc(S(C)(=O)=O)cc2)CC1,"inconclusive: 31.6 µM [activator, single point]"
11,O=C(CCCN1C(=O)/C(=C/c2cccc(Br)c2)SC1=S)NCCCN1CCOCC1,inactive
12,Cc1ccc(CSc2nnc(-c3cccs3)n2C)cc1,inactive
13,O=C1NC(=Nc2ccccc2)SC1Cc1cccc(Cl)c1Cl (stereo unspecified),"inconclusive: 2.31 µM [inhibitor, single point]"
14,Cc1ccc(S(=O)(=O)N2CCOCC2)cc1NC(=O)COc1ccc(-c2nnco2)cc1,"inconclusive: 5.62 µM [inhibitor, single point]"
15,Cn1c(=O)[nH]c(=O)c2c1nc(NCCc1ccccc1)n2Cc1ccc(F)cc1,"inconclusive: 2.51 µM [inhibitor, full curve, poor fit]"
16,COc1ccc(S(=O)(=O)N2CCOCC2)cc1NC(=O)c1cc2c(s1)CCCC2,inactive
17,Cc1cccc(/C(N)=N/OC(=O)Cc2ccccc2)c1,"inconclusive: 2.82 µM [activator, full curve, poor fit]"
18,COC(=O)c1ccc(/C=N/NC(=O)C(=O)NCC2CCCO2)cc1 (stereo unspecified),inactive
19,Cc1cc(Cl)ccc1NC(=S)NCCC(c1ccccc1)c1ccccc1,inactive
20,O=C(O)COc1ccccc1/C=C1\SC(=O)N(Cc2ccc(F)cc2)C1=O,inactive
21,COc1ccc(NC(=O)C2CC2)cc1NS(=O)(=O)c1ccc(F)cc1,"inconclusive: 20.6 µM [inhibitor, partial curve]"
22,COc1ccc(CNC(=O)CN(c2ccccc2)S(=O)(=O)c2ccccc2[N+](=O)[O-])cc1,"inconclusive: 3.55 µM [inhibitor, partial curve, poor fit]"
23,COc1cc(OC)c2cc(C(=O)N/N=C/c3cccc(OC)c3O)[nH]c2c1,"inconclusive: 6.31 µM [inhibitor, partial curve, poor fit]"
